Earlier results, collected in patent publication US6261997A, “Slow release formulations of pesticides” (Yissum Research Development Company of the Hebrew …, priority 1996, dated 2001).

Details: cited from earlier work

SMILES: CCc1cccc(C)c1N(C(=O)CCl)C(C)COC (stereo not shown) [metolachlor]
- depth at which metolachlor was observed (28 days after treatment): 21-27 cm
- depth at which metolachlor was observed (56 days after treatment): 27-33 cm
- downward movement of metolachlor (Bowman (1988, 1989)): no more than 10 cm
- fraction of applied metolachlor found in the superficial layer (0-9 cm) (three days after application): 84-91%

Read-outs that look alike come from different tables or passages of the source.
